The text below walks through data of patent publication US10369195B2, “Methods and compositions for preventing and treating damage to the heart” (MandalMed, Inc., priority 2016, dated 2019).

“Also recorded” adds a separate entry of the source.

For this data set, the system named is interleukin (IL)-1β. Kind of data set: ELISA of IL-1β in plasma of rats with ischemia-reperfusion injury. Format: in vivo, rat. How it is done:
The levels of the inflammatory cytokines, interleukin (IL)-1β and IL-6, were determined in the plasma of control rats and rats with ischemia-reperfusion injury at 2 days (FIG. 4) and 28 days (FIG. 5) post-injury using ELISA kits according to the instructions of the vendor (Pierce ThermoFisher).
The levels of the inflammatory cytokines, IL-1β and IL-6, were determined in the plasma of sham control rats and rats with ischemia-reperfusion injury at 28 days post-injury (FIG. 5) using ELISA kits as described in Example 2 above.
A general note: In an ELISA, binding on a coated surface is turned into a signal by an enzyme label.

B1: Gal-3C: N-terminally truncated form of full length galectin-3, lacking the amino-terminal domain but retaining carbohydrate binding ability; 143 carboxy-terminal residues, SEQ ID NO: 3 (protein)
chain: GAPAGPLIVPYNLPLPGGVVPRMLITILGTVKPNANRIALDFQRGNDVAFHFNPRFNENNRRVIVCNTKLDNNWGREERQSVFPFESGKPFKIQVLVEPDHFKVAVNDAHLLQYNHRVKKLNEISKLGISGDIDITSASYTMI
In the case of B1, the “IL-1β plasma level vs MI PBS-only controls” value (2 days post-MI, 600 μg/day, early window) is reported as “statistically significant increase; also recorded: higher”. Under “2 days post-injury, 200 and 600 μg/day, early window”, the “IL-1β plasma level vs sham healthy controls” value is listed as “higher”. Moreover, under “28 days, early window treated groups”, the “IL-1β plasma level vs MI PBS controls” value is “not significantly greater”. Moreover, where the note is “day 28, 600 μg/d beginning 4 days post-MI (delayed window)”, the “IL-1β expression vs delayed PBS controls” value is given as “did not affect expression”.
